The values below come from the supplement of paper PMC4635364.

Assay [1] has as its system ReNCell VM. Put plainly: neuronal differentiation score (DCX+ cell fraction vs untreated, manual image score) (score (-3 to 3)); higher = more neuronal differentiation. The settings on record: 2 uM, 2 weeks.
The test system of assay [2] is ReNCell VM. Put plainly: dopaminergic neuron differentiation score (TH+ cell fraction vs untreated, manual image score) (score (0 to 3)); higher = more TH+ dopaminergic neuron differentiation. Conditions: 2 uM, 4 weeks, BDNF 10 ng/ml + GDNF 10 ng/ml.

Where a name gives a salt, the structure may show the parent alone. The list shows a part of the results. Repeats in this data set agree poorly, so a single value says little.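 ReNCell VM, a human fetal ventral-midbrain neural progenitor line, was differentiated without mitogens. Blinded raters scored images stained for doublecortin (early neurons) or tyrosine hydroxylase (dopaminergic neurons) against untreated wells (0 = no change). Scores were averaged across repeats and both raters, and compounds averaging 2 or more were selected as hits for retesting.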

In the case of `CN1C[C@H](C(=O)N[C@]2(C)O[C@@]3(O)[C@@H]4CCCN4C(=O)[C@H](Cc4ccccc4)N3C2=O)C[C@@H]2c3cccc4[nH]cc(c34)C[C@H]21` [Dihydroergotamine mesylate], the neuronal differentiation score in the assay with ReNCell VM [1] (library: Tocriscreen) was inactive: 0. In the assay with ReNCell VM [2] (library: Tocriscreen), the “dopaminergic neuron differentiation score” value is inactive: 0.

Consider `CC1CC(Cl)CCC1C(=O)OC(C)(C)C` (stereo unspecified), for which the neuronal differentiation score in the assay with ReNCell VM [1] (library: Spectrum) is inactive: 0. Besides, the “dopaminergic neuron differentiation score” value in the assay with ReNCell VM [2] (library: Spectrum) was inactive: 0.

As to `Cc1cc(OC(=O)N2CCCCC2)c(C(C)C)cc1[N+](C)(C)C`, in the assay on ReNCell VM [1] (library: Spectrum), the neuronal differentiation score is inactive: 0. In the assay on ReNCell VM [2] (library: Spectrum), the “dopaminergic neuron differentiation score” value was inactive: 0.

Turning to `CC[C@H]1CN2CC[C@H]1C[C@@H]2[C@@H](O)c1ccnc2ccc(OC)cc12`, the neuronal differentiation score in the assay with ReNCell VM [1] (library: Spectrum) was inactive: 0. Further, in the assay on ReNCell VM [2] (library: Spectrum), the “dopaminergic neuron differentiation score” value is inactive: 0.

For `CN1CCc2cc3c(c4c2C1Cc1ccccc1-4)OCO3` (stereo unspecified) [roemerine], in the assay with ReNCell VM [1] (library: Natural), the neuronal differentiation score was inactive: 0. In the assay on ReNCell VM [2] (library: Natural), the “dopaminergic neuron differentiation score” value is inactive: 0.

With `C[C@]12CCC(=O)C=C1C=C[C@@H]1[C@@H]2CC[C@@]2(C)[C@H]1CC[C@@]2(O)CCC(=O)O`, the neuronal differentiation score in the assay with ReNCell VM [1] (library: Spectrum) is inactive: 1. For the same compound, the “dopaminergic neuron differentiation score” value with ReNCell VM [2] (library: Spectrum) was inactive: 0.

On to `C=C[C@]12CN(C)[C@@H]3[C@H]4CO[C@H](C[C@H]41)[C@]1(C(=O)Nc4ccccc41)[C@@H]32` [Gelsemine], for which the neuronal differentiation score with ReNCell VM [1] (library: Phytochemical) was inactive: 0. Further, the “dopaminergic neuron differentiation score” value in the assay with ReNCell VM [2] (library: Phytochemical) is inactive: 0.

As for `Oc1cccc2cccnc12`, the neuronal differentiation score in the assay with ReNCell VM [1] (library: Spectrum) is inactive: 0. The “dopaminergic neuron differentiation score” value in the assay on ReNCell VM [2] (library: Spectrum) was inactive: 0.

For `CC(C)=CCCC1(C)C=Cc2c(O)c3c(c(CC=C(C)C)c2O1)OC12C(=CC4CC1C(C)(C)OC2(C/C=C(/C)C(=O)O)C4O)C3=O` (stereo unspecified), the neuronal differentiation score in the assay with ReNCell VM [1] (library: Spectrum) is inactive: 0. Besides, the “dopaminergic neuron differentiation score” value with ReNCell VM [2] (library: Spectrum) was inactive: 0.

For the compound `C=C1C2CC3(C4C[C@H]5C6(C(O)CC[C@@]5(C)C[N@+]([O-])(CC)[C@H]46)[C@@H]3CC2=O)[C@@H]1O` (stereo partly specified) [songorine n-oxide], the neuronal differentiation score in the assay with ReNCell VM [1] (library: Natural) was inactive: 0. Also, the “dopaminergic neuron differentiation score” value with ReNCell VM [2] (library: Natural) is inactive: 0.

On to `C[N+]1(C)CCc2cc3c(cc2[C@H]1[C@@H]1OC(=O)c2c1ccc1c2OCO1)OCO3`, for which, in the assay on ReNCell VM [1] (library: Spectrum), the neuronal differentiation score is inactive: 0. The “dopaminergic neuron differentiation score” value with ReNCell VM [2] (library: Spectrum) is inactive: 0.

As for `N[C@H](C(=O)O)c1cc(O)no1` [Ibotenic acid], in the assay on ReNCell VM [1] (library: Tocriscreen), the neuronal differentiation score was inactive: 0. The “dopaminergic neuron differentiation score” value in the assay with ReNCell VM [2] (library: Tocriscreen) is inactive: 0.

As to `Cc1ccc(S(=O)(=O)N[C@@H](CCCCN)C(=O)CCl)cc1` [Na-p-Tosyl-L-lysine chloromethyl ketone hydrochloride], in the assay with ReNCell VM [1] (library: LOPAC), the neuronal differentiation score is inactive: 0. The “dopaminergic neuron differentiation score” value with ReNCell VM [2] (library: LOPAC) is inactive: 1.

Take `N[C@H](CCCCCP(=O)(O)O)C(=O)O` [D(-)-2-Amino-7-phosphonoheptanoic acid]: in the assay with ReNCell VM [1] (library: LOPAC), the neuronal differentiation score was inactive: 0. Further, the “dopaminergic neuron differentiation score” value with ReNCell VM [2] (library: LOPAC) was inactive: 0.

As to `C[C@]12CCC(=O)C=C1CC[C@@H]1[C@@H]2C(=O)C[C@]2(C)C(=O)CC[C@@H]12` [Adrenosterone], in the assay with ReNCell VM [1] (library: Prestwick), the neuronal differentiation score was inactive: 0. The “dopaminergic neuron differentiation score” value with ReNCell VM [2] (library: Prestwick) is inactive: 0.

For `Cn1cnc(CCN)c1` [1-Methylhistamine dihydrochloride], the neuronal differentiation score with ReNCell VM [1] (library: LOPAC) is inactive: 0. The “dopaminergic neuron differentiation score” value in the assay with ReNCell VM [2] (library: LOPAC) is inactive: 0.

With `N=C(NCc1ccc(Cl)cc1)SCCCc1c[nH]cn1` [Clobenpropit dihydrobromide], the neuronal differentiation score with ReNCell VM [1] (library: Tocriscreen) was inactive: 0. Besides, the “dopaminergic neuron differentiation score” value in the assay with ReNCell VM [2] (library: Tocriscreen) is active: 3.

`Cc1ccc(O)cc1.Cc1cccc(O)c1.Cc1ccccc1O`: the neuronal differentiation score in the assay on ReNCell VM [1] (library: Spectrum) was inactive: 0. Besides, the “dopaminergic neuron differentiation score” value with ReNCell VM [2] (library: Spectrum) is inactive: 0.

In the case of `CCCN(CCC)CCc1ccc(O)c(O)c1` [Dipropyldopamine hydrobromide], the neuronal differentiation score in the assay on ReNCell VM [1] (library: LOPAC) is inactive: 0. In addition, in the assay on ReNCell VM [2] (library: LOPAC), the “dopaminergic neuron differentiation score” value is inactive: 0.

As to `O=C1C[C@@H]2OCC=C3CN4CC[C@]56c7ccccc7N1[C@H]5[C@H]2[C@H]3C[C@H]46` [Strychnine], the neuronal differentiation score with ReNCell VM [1] (library: Phytochemical) was inactive: 0. In addition, the “dopaminergic neuron differentiation score” value with ReNCell VM [2] (library: Phytochemical) is inactive: 0.

Turning to `COc1cc2c(cc1OC)C(C)NCC2` (stereo unspecified), the neuronal differentiation score in the assay on ReNCell VM [1] (library: Prestwick) was inactive: 0. Besides, the “dopaminergic neuron differentiation score” value in the assay with ReNCell VM [2] (library: Prestwick) was inactive: 0.

As to `CC1=NCCc2c1[nH]c1cc(O)ccc21`, the neuronal differentiation score in the assay on ReNCell VM [1] (library: Spectrum) is inactive: 0. Moreover, the “dopaminergic neuron differentiation score” value with ReNCell VM [2] (library: Spectrum) is inactive: 0.

With `CC(=O)[C@H]1CC[C@H]2[C@@H]3CC[C@H]4C[C@H](O)CC[C@]4(C)[C@H]3C(=O)C[C@]12C` [5alpha-Pregnan-3alpha-ol-11,20-dione], the neuronal differentiation score in the assay with ReNCell VM [1] (library: LOPAC) is inactive: 0. Besides, in the assay with ReNCell VM [2] (library: LOPAC), the “dopaminergic neuron differentiation score” value is inactive: 0.

For the compound `COc1cc([C@@H]2c3cc4c(cc3[C@H](O)[C@H]3COC(=O)[C@@H]23)OCO4)cc(OC)c1OC`, in the assay with ReNCell VM [1] (library: Spectrum), the neuronal differentiation score is inactive: 0. Moreover, the “dopaminergic neuron differentiation score” value in the assay on ReNCell VM [2] (library: Spectrum) was inactive: 0.

Turning to `Cc1cc([C@@H]2CCCN2C)on1` [ABT-418 hydrochloride], the neuronal differentiation score in the assay with ReNCell VM [1] (library: LOPAC) is inactive: 0. For the same compound, the “dopaminergic neuron differentiation score” value in the assay with ReNCell VM [2] (library: LOPAC) was inactive: 0.

In the case of `N.N.[Cl][Pt][Cl]`, in the assay with ReNCell VM [1] (library: Spectrum), the neuronal differentiation score was inactive: 0. The “dopaminergic neuron differentiation score” value in the assay on ReNCell VM [2] (library: Spectrum) was inactive: 0.

Consider `CP(=O)(O)C1=CCNCC1`, for which the neuronal differentiation score in the assay with ReNCell VM [1] (library: LOPAC) is inactive: 0. Moreover, the “dopaminergic neuron differentiation score” value in the assay on ReNCell VM [2] (library: LOPAC) was inactive: 0.

For the compound `CCN1C[C@]2(COC(=O)c3ccccc3N3C(=O)C[C@H](C)C3=O)CC[C@H](OC)[C@@]34[C@@H]5C[C@H]6[C@H](OC)[C@@H]5[C@](O)(C[C@@H]6OC)[C@](O)([C@@H](OC)[C@H]23)[C@@H]14` [Methyllycaconitine citrate], the neuronal differentiation score with ReNCell VM [1] (library: Tocriscreen) is inactive: 0. In addition, the “dopaminergic neuron differentiation score” value in the assay on ReNCell VM [2] (library: Tocriscreen) is inactive: 0.
